# Measured values: PubChem BioAssay AID493014 (National Center for Advancing Translational Sciences (NCATS), 2011)
# This is one part of the list. Further columns of the screen follow, without active or inactive calls. Compounds called inactive in the main read-out are mostly missing here. Potencies come from curve fits of mixed quality, noted in brackets.
# Test: qHTS Assay to Find Inhibitors of Chronic Active B-Cell Receptor Signaling
# Settings: ABC-DLBCL IkBa-CBG/CBR reporter, luminescence ratio (green luciferase fused to IkBa over red control in TMD8 lymphoma cells), 4 h
# Summary of the method: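 TMD8 human ABC-DLBCL cells with doxycycline-inducible IκBα–green luciferase fusion and unfused red luciferase, in 0.5% FBS medium; compounds up to 46 uM, 4 h at 37C. Green/red luminescence ratio, filter-overlap corrected, fitted to concentration-response curves.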
# [1] = measured here: CBR red luminescence, cell number
# [2] = measured here: IkBa-CBG green luminescence
Compound,AC50 [1],AC50 [2]
COc1cc(NC(=O)CSc2ccccc2)c(C(=O)O)cc1OC,"29.1 µM [falling, single point]",–
COC(=O)n1c(SC)nc2ccccc21,"25.1 µM [falling, partial curve, poor fit]",–
COc1ccc(OC)c2c(N3CC(C)OC(C)C3)cc(C(F)(F)F)nc12 (configuration not stated),"3.16 µM [rising, full curve, poor fit]",–
O=C(Nc1nccs1)c1nc(-c2ccccc2)n(-c2ccccc2)n1,"3.55 µM [rising, partial curve, poor fit]",–
COCC(=O)N(c1ccc(C(C)C)cc1)C1C=CS(=O)(=O)C1 (configuration not stated),"6.51 µM [rising, single point]","6.51 µM [falling, partial curve, poor fit]"
O=C(N=C1SCC(=O)N1c1ccccc1)c1ccco1,"29.1 µM [rising, single point]",–
FC(F)(F)c1ccccc1NC(=S)N/N=C1\CC2CC=CC12 (configuration not stated),"35.5 µM [falling, partial curve, poor fit]","35.5 µM [falling, single point]"
CCOc1cccc2sc(Nc3nc4ccc(NC(C)=O)cc4s3)nc12,"10.3 µM [falling, partial curve]",–
CCOc1cc(C2c3c(-c4ccccc4)n[nH]c3C(=O)N2c2ccc(C(=O)O)cc2)ccc1O (configuration not stated),"7.08 µM [falling, partial curve]",–
COc1ccc(NC(=O)Nc2cccc3cccnc23)cc1,"2.82 µM [falling, partial curve]",–
CCC1S/C(=N/N=C/c2ccco2)N(Cc2ccccc2C)C1=O (configuration not stated),"35.5 µM [falling, single point]",–
Cc1ccc(S(=O)(=O)n2nnc3ccccc32)c(C)c1C,"35.5 µM [falling, single point]",–
COc1cccc(Cn2c(-c3nonc3N)nc3ccccc32)c1,"29.1 µM [rising, partial curve, poor fit]",–
COC(=O)C1=C(C)NC(=O)C1(NC(=O)CN1CCCC1=O)C(F)(F)F (configuration not stated),"1.03 µM [rising, full curve, poor fit]",–
COC(=O)N/N=C/c1cn(CCOc2cccc(OC)c2)c2ccccc12,"35.5 µM [falling, single point]",–
CCCc1nc2oc3cc(OC)ccc3c(=O)c2c(=O)n1CCc1ccccc1,"35.5 µM [falling, single point]",–
Cc1cc(C)cc(NC(=S)N(Cc2ccc(Br)cc2)Cc2ccc(C(=O)O)cc2)c1,"12.6 µM [falling, partial curve]",–
Cc1ccc(NC(=S)NCc2ccc3c(c2)OCO3)cc1,"1.64 µM [rising, partial curve, poor fit]",–
Cc1cccc([C@@H]2[C@@H]3C(=O)N(Cc4ccccc4)C(=O)[C@@H]3[C@]3(C)C(=O)N(c4ccc(C(F)(F)F)cc4)C(=O)N23)c1,"11.2 µM [falling, single point]",–
Cn1c(SCC(=O)c2cc3ccccc3o2)nnc1-c1ccccc1,"2.91 µM [falling, full curve]",–
COc1ccc(NC(=O)CC(c2ccc(F)cc2)c2ccc(OC(C)C)cc2)cc1 (configuration not stated),"29.1 µM [rising, single point]",–

Compound,AC50 [1],AC50 [2]
CCN(CCCNC(=O)CN1C(=O)COc2ccc(S(=O)(=O)N3CCC(C)CC3)cc21)Cc1ccccc1,"35.5 µM [falling, single point]",–
CCOc1ccccc1NC(=S)NC(=O)C1CC1,"0.562 µM [falling, full curve, poor fit]",–
C[C@H](NC(=O)c1[nH]cnc1C(=O)Nc1ccccc1)C(=O)OC(C)(C)C,"1.58 µM [falling, partial curve]",–
CC(OC(=O)c1cc(=O)[nH]c2ccccc12)C(=O)NC1CCCC1 (configuration not stated),"13 µM [rising, single point]",–
O=C(Nc1cccnc1Cl)c1cc(-c2ccccc2O)on1,"1.78 µM [falling, full curve]",–
N#CC(=C1CCCC1)c1nc(-c2ccccc2O)cs1,"12.6 µM [falling, single point]",–
N#CCSc1nc2[nH]ncc2c(=O)n1-c1ccccc1Br,"2 µM [falling, full curve]",–
CC(Sc1nnc(-c2ccc(Cl)cc2Cl)n1Cc1ccccc1)C(=O)Nc1nccs1 (configuration not stated),"12.6 µM [falling, single point]",–
COc1ccc(-c2[nH]c(-c3ccc(C)cc3)nc2SCC(=O)NC2CCCC2)cc1,"4.61 µM [rising, full curve, poor fit]",–
O=C(N/N=C/c1ccc([N+](=O)[O-])o1)c1ccc(NS(=O)(=O)c2cccs2)cc1,"17.8 µM [falling, single point]",–
CC1N(C(=O)N2CCOCC2)CCN1S(=O)(=O)c1cccc(C(F)(F)F)c1 (configuration not stated),"14.1 µM [rising, partial curve, poor fit]",–
CCc1ccccc1N(CC)C(=O)c1cn(CC)c(=O)c2cc(OC)c(OC)cc12,"22.4 µM [falling, single point]",–
COc1ccccc1C(=O)N/N=C/c1c[nH]c2ccccc12,"0.355 µM [falling, full curve, poor fit]",–
CC(=O)Nc1ccc(-c2csc(Nc3ccc(Cl)cn3)n2)cc1,"0.316 µM [falling, partial curve, poor fit]",–
CC(C(=O)O)C1SC(=O)NC1=O (configuration not stated),"0.366 µM [falling, full curve, poor fit]",–
Cc1ccc(-c2noc(CSc3ccccc3)n2)cc1,"16.4 µM [falling, single point]",–
Cc1ccc(-c2nc(CSCC(=O)Nc3cc(C)on3)c(C)o2)cc1,"7.94 µM [falling, partial curve, poor fit]",–
Cc1ccc(OCc2nc(-c3cccnc3)no2)cc1C,"2.51 µM [rising, single point]",–
COc1cccc(OC)c1C(=O)OCC(=O)N(C)c1ccccc1,"8.91 µM [rising, partial curve, poor fit]",–
CC(C)CN=Cc1c(O)c([N+](=O)[O-])cc2oc3c(c12)CCCC3,"9.2 µM [rising, partial curve, poor fit]",–
O=C(CSc1nccc(=O)[nH]1)N1CCc2ccccc2C1,"16.4 µM [falling, single point]",–

Compound,AC50 [1],AC50 [2]
O=C(Nc1ccccc1)Nc1ccc(Br)c(Cl)c1,"23.1 µM [falling, single point]",–
COc1ccccc1C(=O)NCc1ccc(-c2nc3ccccc3s2)cc1,"3.26 µM [rising, full curve, poor fit]",–
OCCOCCNc1ncnc2c1cnn2-c1ccc(Cl)cc1,"35.5 µM [falling, single point]",–
CCC(=O)Nc1cc(NC(=O)CSc2ncc(-c3ccc(F)cc3)n2Cc2ccco2)ccc1C,"22.4 µM [falling, single point]",–
COc1ccccc1-c1c(C)oc2c(CN3CCCC(C)C3)c(O)ccc2c1=O (configuration not stated),"2 µM [rising, full curve, poor fit]",–
CN(C)CCCNc1nc(-c2ccc(Cl)cc2)nc2ccccc12,"15.8 µM [falling, single point]",–
CCN(CC)c1ccc(-c2nn3c(-c4ccccc4OC)nnc3s2)cc1,"10 µM [falling, partial curve, poor fit]","0.794 µM [falling, full curve]"
CC1CCC2(CC1)NC(=O)N(CC(=O)NCc1ccc(Cl)cc1)C2=O (configuration not stated),"0.116 µM [rising, full curve, poor fit]",–
FC(F)(F)COc1nc(N/N=C/c2cccnc2)nc(N2CCCCC2c2ccccn2)n1 (configuration not stated),"10 µM [falling, partial curve, poor fit]","3.55 µM [rising, full curve, poor fit]"
COc1ccc(Cl)c2sc(N3CCN(C(=O)c4ccco4)CC3)nc12,"0.517 µM [rising, full curve, poor fit]",–
O=C(/C=C/c1ccc(-c2ccccc2)o1)c1ccccc1,"11.6 µM [falling, partial curve, poor fit]",–
CCN(C)Cc1c(C(=O)N2CCc3ccccc3C2)nc2ccc(Cl)cn12,"31.6 µM [falling, single point]",–
O=C(N/N=C/C(Cl)=C/c1ccc([N+](=O)[O-])cc1)C(=O)Nc1ccccc1C(=O)O,"1.12 µM [falling, full curve]",–
O=C(Cn1ccc(C(F)(F)F)n1)N/N=C/c1cccs1,"29.1 µM [rising, single point]",–
COCCNC(=O)C(C#N)c1nc2ccccc2nc1N1CCCCCC1 (configuration not stated),"3.16 µM [falling, partial curve, poor fit]",–
COc1ccc(N2C(=O)CC(Sc3nc4ccccc4s3)C2=O)cc1OC (configuration not stated),"0.1 µM [rising, full curve, poor fit]",–
CCOC(=O)N1CCN(c2ccc(F)cc2[N+](=O)[O-])CC1,"11.6 µM [rising, partial curve, poor fit]",–
CCc1ccc(/C=N/n2c(C3CCCCC3)n[nH]c2=S)cc1,"14.1 µM [rising, partial curve, poor fit]",–
COc1ccc(OC)c(S(N)(=O)=O)c1,"4.11 µM [rising, partial curve, poor fit]",–
COc1ccc(C2CC(c3ccc(Br)cc3)=NN2C(=O)CSC2=NCCS2)cc1 (configuration not stated),"4.61 µM [falling, partial curve, poor fit]",–
Clc1ccc(Nc2nc(C3CC3)cs2)cc1,"0.58 µM [rising, full curve, poor fit]",–

# Taken from above:
# AC50 [1] with `CC(Sc1nnc(-c2ccc(Cl)cc2Cl)n1Cc1ccccc1)C(=O)Nc1nccs1` (configuration not stated) is entered as 12.6 µM [falling, single point]
# AC50 [1] with `Cc1cccc([C@@H]2[C@@H]3C(=O)N(Cc4ccccc4)C(=O)[C@@H]3[C@]3(C)C(=O)N(c4ccc(C(F)(F)F)cc4)C(=O)N23)c1` is entered as 11.2 µM [falling, single point]
# AC50 [1] with `CCOc1cccc2sc(Nc3nc4ccc(NC(C)=O)cc4s3)nc12` is entered as 10.3 µM [falling, partial curve]
# AC50 [1] with `COc1cc(NC(=O)CSc2ccccc2)c(C(=O)O)cc1OC` is entered as 29.1 µM [falling, single point]
# AC50 [1] with `CCCc1nc2oc3cc(OC)ccc3c(=O)c2c(=O)n1CCc1ccccc1` is entered as 35.5 µM [falling, single point]
